In the supplement of paper PMC12823440, “Inhibitors supercharge kinase turnover through native proteolytic circuits” (Nature, 2025):
Some of the results follow. Hit calls seldom repeat between salt and free forms of one compound.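 In K562 cells expressing nanoluciferase-fused kinases, luminescence was recorded at 4 h intervals between 2 and 18 h, normalized as percent of control with DMSO at 100% and a positive control at 0%. A significant (2 sigma) signal drop marks a time point as decreased. The authors' rule for a hit is not shown and takes in more than the number of time points.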

Sequences of proteins named here, by UniProt entry; tags and fusion partners are left off.
UniProt P29317, whole entry: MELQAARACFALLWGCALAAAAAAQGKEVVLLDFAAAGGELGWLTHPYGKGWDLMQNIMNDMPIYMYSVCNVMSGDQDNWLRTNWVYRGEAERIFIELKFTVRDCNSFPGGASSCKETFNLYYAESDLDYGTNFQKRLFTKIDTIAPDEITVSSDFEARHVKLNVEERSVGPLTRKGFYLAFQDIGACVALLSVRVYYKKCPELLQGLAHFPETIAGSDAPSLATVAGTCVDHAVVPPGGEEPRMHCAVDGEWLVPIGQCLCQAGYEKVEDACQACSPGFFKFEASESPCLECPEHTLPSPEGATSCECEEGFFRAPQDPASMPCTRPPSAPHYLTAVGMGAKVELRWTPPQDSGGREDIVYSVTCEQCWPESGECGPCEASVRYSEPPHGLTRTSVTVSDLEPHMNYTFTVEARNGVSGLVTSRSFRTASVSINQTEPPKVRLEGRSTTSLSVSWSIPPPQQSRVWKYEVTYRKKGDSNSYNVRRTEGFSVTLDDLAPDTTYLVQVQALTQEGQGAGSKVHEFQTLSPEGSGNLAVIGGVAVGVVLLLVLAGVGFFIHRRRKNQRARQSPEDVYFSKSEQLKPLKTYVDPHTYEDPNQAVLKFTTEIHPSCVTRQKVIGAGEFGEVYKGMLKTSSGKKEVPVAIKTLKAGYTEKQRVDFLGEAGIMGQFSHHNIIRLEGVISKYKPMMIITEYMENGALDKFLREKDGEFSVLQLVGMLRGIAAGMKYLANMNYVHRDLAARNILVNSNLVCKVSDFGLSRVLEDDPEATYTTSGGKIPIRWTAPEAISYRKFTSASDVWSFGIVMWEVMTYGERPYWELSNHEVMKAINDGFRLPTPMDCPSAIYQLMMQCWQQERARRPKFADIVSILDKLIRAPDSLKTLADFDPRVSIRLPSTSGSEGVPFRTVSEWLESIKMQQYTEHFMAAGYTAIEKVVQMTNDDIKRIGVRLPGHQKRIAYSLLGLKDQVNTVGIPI
UniProt P21860, whole entry: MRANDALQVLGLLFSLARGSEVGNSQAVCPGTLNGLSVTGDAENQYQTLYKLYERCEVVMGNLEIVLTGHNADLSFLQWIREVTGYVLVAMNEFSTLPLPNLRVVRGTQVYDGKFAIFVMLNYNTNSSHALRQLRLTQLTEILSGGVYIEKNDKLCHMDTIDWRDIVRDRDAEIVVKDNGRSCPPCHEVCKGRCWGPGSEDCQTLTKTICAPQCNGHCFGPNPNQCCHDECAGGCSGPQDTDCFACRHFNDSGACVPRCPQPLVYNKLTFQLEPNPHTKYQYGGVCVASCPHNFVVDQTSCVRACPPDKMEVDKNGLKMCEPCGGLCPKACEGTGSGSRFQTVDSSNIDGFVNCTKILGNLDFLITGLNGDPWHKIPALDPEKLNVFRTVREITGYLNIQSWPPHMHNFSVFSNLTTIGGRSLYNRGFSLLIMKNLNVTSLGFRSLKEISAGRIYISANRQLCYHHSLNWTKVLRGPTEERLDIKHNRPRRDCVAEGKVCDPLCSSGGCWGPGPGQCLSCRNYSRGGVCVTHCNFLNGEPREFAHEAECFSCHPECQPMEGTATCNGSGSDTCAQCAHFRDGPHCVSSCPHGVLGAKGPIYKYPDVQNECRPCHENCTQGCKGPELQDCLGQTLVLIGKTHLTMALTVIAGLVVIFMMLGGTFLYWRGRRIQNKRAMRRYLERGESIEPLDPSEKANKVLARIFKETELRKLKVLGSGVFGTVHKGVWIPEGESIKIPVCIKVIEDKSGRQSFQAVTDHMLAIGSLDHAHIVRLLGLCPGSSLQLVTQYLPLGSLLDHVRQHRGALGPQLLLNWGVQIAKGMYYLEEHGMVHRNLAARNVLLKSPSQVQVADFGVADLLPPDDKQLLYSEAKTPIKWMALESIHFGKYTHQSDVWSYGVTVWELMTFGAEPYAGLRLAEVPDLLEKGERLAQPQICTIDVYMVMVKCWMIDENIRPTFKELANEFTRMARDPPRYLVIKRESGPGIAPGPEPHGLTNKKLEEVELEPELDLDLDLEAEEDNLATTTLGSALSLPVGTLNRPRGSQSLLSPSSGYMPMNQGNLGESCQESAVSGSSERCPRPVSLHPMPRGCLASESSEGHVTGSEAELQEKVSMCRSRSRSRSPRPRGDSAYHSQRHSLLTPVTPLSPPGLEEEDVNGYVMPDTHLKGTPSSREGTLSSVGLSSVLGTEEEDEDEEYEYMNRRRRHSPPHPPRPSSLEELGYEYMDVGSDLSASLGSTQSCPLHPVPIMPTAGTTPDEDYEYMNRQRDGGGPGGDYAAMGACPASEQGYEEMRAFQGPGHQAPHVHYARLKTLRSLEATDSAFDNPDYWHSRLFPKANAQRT
UniProt Q15303, whole entry R711C: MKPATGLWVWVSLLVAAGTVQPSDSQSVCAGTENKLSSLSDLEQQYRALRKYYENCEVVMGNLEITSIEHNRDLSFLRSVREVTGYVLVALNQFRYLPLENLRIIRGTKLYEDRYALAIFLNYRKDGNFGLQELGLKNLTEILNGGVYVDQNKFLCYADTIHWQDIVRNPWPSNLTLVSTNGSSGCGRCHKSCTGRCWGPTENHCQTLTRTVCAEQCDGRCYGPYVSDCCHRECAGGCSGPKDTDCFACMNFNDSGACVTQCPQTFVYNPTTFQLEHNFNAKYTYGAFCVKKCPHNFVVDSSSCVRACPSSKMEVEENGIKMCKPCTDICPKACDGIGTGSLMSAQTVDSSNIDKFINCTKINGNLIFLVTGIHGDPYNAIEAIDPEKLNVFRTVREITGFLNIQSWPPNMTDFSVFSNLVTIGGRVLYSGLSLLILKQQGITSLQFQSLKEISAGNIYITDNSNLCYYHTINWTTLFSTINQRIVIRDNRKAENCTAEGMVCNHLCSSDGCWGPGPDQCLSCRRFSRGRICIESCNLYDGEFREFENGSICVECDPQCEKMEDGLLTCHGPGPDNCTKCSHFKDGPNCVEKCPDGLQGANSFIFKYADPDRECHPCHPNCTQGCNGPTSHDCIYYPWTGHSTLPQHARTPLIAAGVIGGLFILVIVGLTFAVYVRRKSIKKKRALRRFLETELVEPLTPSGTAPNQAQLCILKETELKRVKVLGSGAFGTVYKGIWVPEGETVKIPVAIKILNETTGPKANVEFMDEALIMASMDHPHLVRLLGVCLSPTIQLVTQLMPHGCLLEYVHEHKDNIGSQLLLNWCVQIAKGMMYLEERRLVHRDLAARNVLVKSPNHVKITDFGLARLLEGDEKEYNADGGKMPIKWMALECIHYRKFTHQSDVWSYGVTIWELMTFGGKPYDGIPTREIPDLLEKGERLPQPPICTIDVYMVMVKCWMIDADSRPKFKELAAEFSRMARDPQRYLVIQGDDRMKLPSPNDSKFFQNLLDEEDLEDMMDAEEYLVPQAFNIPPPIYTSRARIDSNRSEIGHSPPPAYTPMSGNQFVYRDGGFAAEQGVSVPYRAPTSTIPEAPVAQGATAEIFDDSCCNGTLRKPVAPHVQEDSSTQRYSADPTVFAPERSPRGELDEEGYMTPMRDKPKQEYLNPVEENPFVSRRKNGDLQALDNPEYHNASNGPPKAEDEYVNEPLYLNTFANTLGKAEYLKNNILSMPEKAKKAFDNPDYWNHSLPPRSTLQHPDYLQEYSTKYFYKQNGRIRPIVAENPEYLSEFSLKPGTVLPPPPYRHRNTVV

Tests used:
Experiment in all cases: kinase-Nluc reporter destabilization hit call (1 = scored as downregulated) (binary); higher = compound decreases kinase abundance
Conditions in all cases: K562; 2-18 h
[1] = target: EGFR (UniProt P00533)
[2] = target: EGFR_G719S (UniProt P00533)
[3] = target: EGFR_G719S_T790M (UniProt P00533)
[4] = target: EGFR_L718V (UniProt P00533)
[5] = target: EGFR_L858R (UniProt P00533)
[6] = target: EGFR_L861Q (UniProt P00533)
[7] = target: EGFR_T790M (UniProt P00533)
[8] = target: EPHA2 (UniProt P29317)
[9] = target: ERBB3 (UniProt P21860)
[10] = target: ERBB4_R711C (clone: ERBB4_mut) (UniProt Q15303)

Measured: kinase-Nluc reporter destabilization hit call

Cc1ccc(C(=O)NC2CC2)cc1-n1ncc(C(=O)c2cccc(C#N)c2)c1N [Acumapimod] (10 µM)
inactive: [1] 0 | [2] 0 | [3] 0 | [4] 0 | [5] 0 | [6] 0 | [7] 0 | [8] 0 | [9] 0 | [10] 0

CC(C)Oc1ccc(F)c(-c2cnc(N)c(C(=O)Nc3cnccc3N3CCC[C@@H](C(=O)O)C3)n2)c1 (2 µM)
inactive: [1] 0 | [2] 0 | [3] 0 | [4] 0 | [5] 0 | [6] 0 | [7] 0 | [8] 0 | [9] 0 | [10] 0

Cc1ccc(NC(=O)Nc2cc(C(F)(F)F)ccc2F)cc1Nc1ccc2c(c1)NC(=O)/C2=C\c1ccc[nH]1 (2.5 µM)
inactive: [1] 0 | [2] 0 | [3] 0 | [4] 0 | [5] 0 | [6] 0 | [7] 0 | [8] 0 | [9] 0 | [10] 0

O=C(ON=C1c2ccccc2-c2nc3ccccc3nc21)c1ccco1 (2.5 µM)
inactive: [1] 0 | [2] 0 | [3] 0 | [4] 0 | [5] 0 | [6] 0 | [7] 0 | [8] 0 | [9] 0 | [10] 0

N#Cc1ccc(-c2cnc3[nH]cc(NC(=O)c4cccnc4)c3c2)cc1 (10 µM)
inactive: [1] 0 | [2] 0 | [3] 0 | [4] 0 | [5] 0 | [6] 0 | [7] 0 | [8] 0 | [9] 0 | [10] 0

COc1cc2ncnc(Oc3ccc(CC(=O)Nc4cnn(C(C)C)c4)cc3)c2cc1OC (10 µM)
inactive: [1] 0 | [2] 0 | [3] 0 | [4] 0 | [5] 0 | [6] 0 | [7] 0 | [8] 0 | [9] 0 | [10] 0

Some of these compounds in order of length of the SMILES, largest number first:
Cc1ccc(NC(=O)Nc2cc(C(F)(F)F)ccc2F)cc1Nc1ccc2c(c1)NC(=O)/C2=C\c1ccc[nH]1 (2.5 µM)
inactive: [1] 0 | [2] 0 | [3] 0 | [4] 0 | [5] 0 | [6] 0 | [7] 0 | [8] 0 | [9] 0 | [10] 0

N#Cc1ccc(-c2cnc3[nH]cc(NC(=O)c4cccnc4)c3c2)cc1 (10 µM)
inactive: [1] 0 | [2] 0 | [3] 0 | [4] 0 | [5] 0 | [6] 0 | [7] 0 | [8] 0 | [9] 0 | [10] 0

O=C(ON=C1c2ccccc2-c2nc3ccccc3nc21)c1ccco1 (2.5 µM)
inactive: [1] 0 | [2] 0 | [3] 0 | [4] 0 | [5] 0 | [6] 0 | [7] 0 | [8] 0 | [9] 0 | [10] 0

(listing goes on)

Cc1cc(C(=O)NOCCO)c(Nc2ccc(I)cc2F)n(C)c1=O (10 µM)
inactive: [1] 0 | [2] 0 | [3] 0 | [4] 0 | [5] 0 | [6] 0 | [7] 0 | [8] 0 | [9] 0 | [10] 0

CNC(=O)CNc1cnc2ccc(-c3ccc(OC)c(OC)c3)cc2n1 (10 µM)
inactive: [1] 0 | [2] 0 | [3] 0 | [4] 0 | [5] 0 | [6] 0 | [7] 0 | [8] 0 | [9] 0 | [10] 0

CCCn1/c(=N/C(=O)c2cccc(C(N)=O)c2)[nH]c2ccccc21 [Takinib] (10 µM)
inactive: [1] 0 | [2] 0 | [3] 0 | [4] 0 | [5] 0 | [6] 0 | [7] 0 | [8] 0 | [9] 0 | [10] 0

Cc1c(C(=O)Nc2ccc(Oc3ccnc4[nH]cc(-c5ccccc5)c34)c(F)c2)c(=O)n(-c2ccc(F)cc2)n1C (10 µM)
inactive: [1] 0 | [2] 0 | [3] 0 | [4] 0 | [5] 0 | [6] 0 | [7] 0 | [8] 0 | [9] 0 | [10] 0

CN1CCC(CNc2ccc3ncc(-c4cccc(OC(F)(F)F)c4)n3n2)CC1 (2.5 µM)
inactive: [1] 0 | [2] 0 | [3] 0 | [4] 0 | [5] 0 | [6] 0 | [7] 0 | [8] 0 | [9] 0 | [10] 0

C=CC(=O)N1CCN(C(=O)CNc2cc(I)c(Cl)cc2O)CC1 [K-Ras(G12C) inhibitor 12] (10 µM)
inactive: [1] 0 | [2] 0 | [3] 0 | [4] 0 | [5] 0 | [6] 0 | [7] 0 | [8] 0 | [9] 0 | [10] 0

CC(C)(C)Cc1[nH]nc2c1[C@@](C)(c1ccccc1)C1=C(CC(C)(C)CC1=O)N2 (10 µM)
inactive: [1] 0 | [2] 0 | [3] 0 | [4] 0 | [5] 0 | [6] 0 | [7] 0 | [8] 0 | [9] 0 | [10] 0

C=CC(=O)N1CCC[C@@H](n2nc(-c3ccc(Oc4ccccc4)cc3)c3c(N)n[nH]c(=O)c32)C1 [BTK inhibitor 17] (10 µM)
inactive: [1] 0 | [2] 0 | [3] 0 | [4] 0 | [5] 0 | [6] 0 | [7] 0 | [8] 0 | [9] 0 | [10] 0

CC(C)=CC[C@@H](O)C1=CC(=O)c2c(O)ccc(O)c2C1=O [Shikonin] (10 µM)
inactive: [1] 0 | [2] 0 | [3] 0 | [4] 0 | [5] 0 | [6] 0 | [7] 0 | [8] 0 | [9] 0 | [10] 0

Cc1cnc(NC(=O)c2cc(Oc3cnc(C(=O)N(C)C)nc3)c3cc(C)oc3c2)cn1 (10 µM)
inactive: [1] 0 | [2] 0 | [3] 0 | [4] 0 | [5] 0 | [6] 0 | [7] 0 | [8] 0 | [9] 0 | [10] 0
